Patent US4908322A, “Derivatization of amines for electrochemical detection” (The United States of America as represented by the …, priority 1988, dated 1990)

Experiment: Histamine and N.tau.-methylhistamine contents in rat hypothalamus
Settings: 1.5±0.3 mg tissue, five repetitions

Row | Structure (SMILES) | Mean content of the median eminence (± SD) [pmol/g tissue]
1 | Cn1cnc(CCN)c1 [N.tau.-methylhistamine] | 1.5±0.4
2 | NCCc1c[nH]cn1 [histamine] | 3.7±1.0
